Results reported in PubChem BioAssay AID504467 (National Center for Advancing Translational Sciences (NCATS), 2011).
Out of some 330,000 compounds screened, about 7,700 (2.3%) were called active. Inconclusive means that the source gave no clear call. Such entries were picked first, then a sample of the others. Calls come from the whole dose curve; as a rule, active = well fitted inhibition curve with a large enough effect; inconclusive = small, poorly fitted or top-dose-only effect, or effect the other way; inactive = flat fitted curve, though single readings scatter. Where the call is inconclusive, the potency comes from a doubtful curve fit.

Test: qHTS screen for small molecules that inhibit ELG1-dependent DNA repair in human embryonic kidney (HEK293T) cells expressing luciferase-tagged ELG1; note: nearly all actives have a fitted effect of over 55% in size
Conditions: HEK293T ELG1-luciferase reporter, luminescence, 16 h, DNA damage induced by 5-fluorouridine; activity change, negative = inhibition: at 46.1 µM (top of the series)
Method in brief: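 Quantitative HTS, concentration-response format. 2,000 cells/well co-treated with 5-fluorouridine and compound, 16 hr in 5% CO2 at 37 °C; ONE-Glo luminescence read after 30 min.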
% is set by controls: 0 for no effect and ±100 for the full control effect; potency is the fitted concentration of half-maximal effect.

Row | SMILES | Potency | activity change, negative = inhibition
1 | Cc1cnc(C)c(N2CCN(Cc3nc(-c4cccc(F)c4F)oc3C)CC2)n1 | inconclusive: 23.1 µM [inhibitor, single point] | 
2 | COc1ccc(NC(=O)c2[nH]ncc2[N+](=O)[O-])cc1 |  | inactive: 28.4%
3 | CC(C)N(CCCNC(=O)C1CCN(C(=O)c2cc3sccc3n2C)CC1)Cc1ccccc1 | inconclusive: 9.2 µM [activator, partial curve, poor fit] | 
4 | CC(=O)c1ccc(NC(=S)Nc2cccc(Cl)c2C)cc1 |  | inactive: 13.2%
5 | CCOC(=O)c1c(NC(=O)Cc2ccccc2)sc2c1CCN(CC)C2 |  | inconclusive: 7.77% [activator]
6 | CCOC(=O)c1c(C)[nH]c(C)c1S(=O)(=O)N1CCN(c2ccc([N+](=O)[O-])cc2)CC1 | inconclusive: 29.1 µM [inhibitor, single point] | 
7 | Cc1cccc(Nc2nc(N)c([N+](=O)[O-])c(NCc3ccccc3)n2)c1 | inconclusive: 29.1 µM [inhibitor, single point] | 
8 | COc1cc(C(=O)Nc2nnc(Cc3ccccc3)s2)cc(OC)c1OC | inconclusive: 23.1 µM [inhibitor, single point] | 
9 | Nc1nonc1-c1nc2ccccc2n1CC(=O)N/N=C\c1ccc(-c2ccc(Cl)cc2)o1 |  | inactive: 16.4%
10 | Cc1cnc(C(=O)OCC(=O)Nc2cc(S(=O)(=O)N3CCCCC3)ccc2Cl)cn1 |  | inactive: 6.18%
11 | Cn1c(=O)[nH]c(=O)c2c1nc(CN1CCN(c3ccc(F)cc3)CC1)n2CCc1ccccc1 | inconclusive: 32.6 µM [inhibitor, single point] | 
12 | COc1ccc(C(=O)CN2CCN(S(=O)(=O)c3cccc([N+](=O)[O-])c3)CC2)cc1 |  | inactive: -2.1%
13 | Cc1cc(Cl)c(S(=O)(=O)N2CCSCC2)cc1OCC(=O)NC1CCCCC1 | active: 9.2 µM | 
14 | COc1cc(CNc2ccc(S(N)(=O)=O)cc2)ccc1OCC(=O)NC1CCCCC1 | inconclusive: 16.4 µM [inhibitor, partial curve] | 
15 | Cc1ccc(C)c(N2CCN(C(=O)c3cc4sccc4n3C)CC2)c1 | inconclusive: 3.26 µM [inhibitor, partial curve, poor fit] | 
16 | CCc1ccc(OCC(=O)Nc2ccc(-c3cc4ccccc4oc3=O)c(OC)c2)cc1 |  | inactive: -4.73%
17 | Nc1c(N)c2ccccc2oc1=O | inconclusive: 25.9 µM [activator, single point] | 
18 | COc1ccc(-c2c(-c3ccccc3OC)sc3ccccc23)cc1C=O | inconclusive: 20.6 µM [activator, partial curve, poor fit] | 
19 | Cn1cc(/C=N/NC(=O)c2ccccc2O)c2ccccc21 | inconclusive: 11.6 µM [activator, partial curve] | 
20 | CCOc1ccc(S(=O)(=O)n2nc(C)c(S(=O)(=O)N3CCOCC3)c2C)cc1 |  | inactive: 8.48%
21 | Cc1nc(N2CCC(C)CC2)c2c(C)c(C(=O)Nc3ccccc3C(F)(F)F)sc2n1 | active: 14.6 µM | 
22 | COc1ccccc1C(=O)Nc1cc(-c2ccc(C)cc2)no1 | inconclusive: 11.6 µM [activator, partial curve] | 
23 | CCOc1ccc2nc(/N=C/c3nc(-c4ccccc4)oc3O)sc2c1 | inconclusive: 20.6 µM [activator, partial curve, poor fit] | 
24 | O=C(Nc1ccc(S(=O)(=O)N2CCCCC2)cc1)c1ccc(CN2CCOCC2)cc1 | active: 7.31 µM | 
25 | Cc1sc2ncnc(N3CCN(Cc4ccccc4)CC3)c2c1-c1ccc(F)cc1 |  | inactive: -21.6%

Look-ups from the list:
For Potency, Cc1nc(N2CCC(C)CC2)c2c(C)c(C(=O)Nc3ccccc3C(F)(F)F)sc2n1 reads active: 14.6 µM
For Potency, Cc1cccc(Nc2nc(N)c([N+](=O)[O-])c(NCc3ccccc3)n2)c1 reads inconclusive: 29.1 µM [inhibitor, single point]
For activity change, negative = inhibition, Cc1sc2ncnc(N3CCN(Cc4ccccc4)CC3)c2c1-c1ccc(F)cc1 reads inactive: -21.6%

Remaining list, next part:

Row | SMILES | Potency | activity change, negative = inhibition
26 | O=C(CC(=O)c1ccccc1)Nc1ccc2c(c1)OCCO2 | inconclusive: 4.11 µM [activator, full curve] | 
27 | CC(C)(C)OC(=O)N1CCC[C@H]1c1nnc(SCc2ccc(Cl)cc2)o1 |  | inactive: -29.9%
28 | N#CC(C#N)=NNc1ccc(S(=O)(=O)N2CCCC2)cc1 |  | inactive: -27.4%
29 | Cc1ccc(S(=O)(=O)Nc2cc(C(C(=O)OC(C)C)C(=O)C(F)(F)F)c(O)c3ccccc23)c(C)c1 (stereo not given) | inconclusive: 13 µM [inhibitor, partial curve] | 
30 | O=[N+]([O-])c1ccc(-c2ccc(/C=N/O)o2)cc1 | inconclusive: 18.3 µM [activator, partial curve] | 
31 | CCOc1ccccc1NC(=S)N1CCN(c2ccccc2F)CC1 |  | inactive: 0%
32 | Fc1ccccc1CNCc1ccc2c(c1)OCO2 |  | inactive: 16.5%
33 | O=C1C(Cc2ccccc2)Nc2ncnc(N3CCc4ccccc4C3)c2N1Cc1ccc(Cl)cc1 (stereo not given) | inconclusive: 10 µM [inhibitor, single point] | 
34 | O=C(CCC(=O)c1cccs1)Nc1ccc(F)c(F)c1F | inconclusive: 2.91 µM [activator, partial curve] | 
35 | CCOc1cc(/C=C/c2cc(C(=O)O)c3ccccc3n2)ccc1O | inconclusive: 16.4 µM [activator, single point] | 
36 | Cc1onc(-c2c(F)cccc2Cl)c1C(=O)NCc1ccco1 |  | inactive: 2.04%
37 | CC(C)C(=O)Nc1ccc(NC(=O)c2cccc3c(Br)cccc23)cc1 |  | inactive: 11.9%
38 | COc1cc2cc(Br)cc(Br)c2nc1C | inconclusive: 18.4 µM [inhibitor, single point] | 
39 | CCOC(=O)c1c(-c2ccc(-c3ccccc3)cc2)csc1NC(=O)c1cccc(N2C(=O)CCC2=O)c1 | active: 7.31 µM | 
40 | O=C(NNC(=S)Nc1ccccc1C(F)(F)F)C1CC1 |  | inactive: 2.36%
41 | CC(C)(C)c1ccc(-c2nnc3sc(-c4ccccn4)nn23)cc1 | inconclusive: 6.51 µM [activator, partial curve, poor fit] | 
42 | CC(C)(C)c1cc(CCC(=O)NN)cc(C(C)(C)C)c1O |  | inactive: -10.1%
43 | O=C(Nc1ccccc1)OCN1C(=O)c2ccccc2C1=O | inconclusive: 29.1 µM [activator, single point] | 
44 | COCCNC(=O)C(=O)Nc1ccc(Br)cc1 | inconclusive: 20.6 µM [activator, partial curve] | 
45 | CCOC(=O)c1cnc2ccc(Cl)cc2c1NCCN(C)C |  | inactive: 0.524%
46 | O=C(/C=C/c1c(F)cccc1Cl)NCc1ccco1 | inconclusive: 18.4 µM [activator, partial curve] | 
47 | COC(=O)c1cccnc1NC(=S)NC1CCCCC1 | inconclusive: 14.6 µM [activator, partial curve, poor fit] | 
48 | C=CCn1c(C)cc(C(=O)CSc2nc3ccccc3[nH]2)c1C | inconclusive: 0.58 µM [activator, full curve] | 
49 | O=C(CSc1nnnn1-c1cccnc1)Nc1ccc(OCc2ccccc2)cc1 | inconclusive: 0.82 µM [inhibitor, full curve] | 
50 | COc1ccc(Cn2c(C)ccc2C)cc1 |  | inactive: -16.5%

Row | SMILES | Potency | activity change, negative = inhibition
51 | COc1cc(OC)c(/C=N/n2c(C)nnc2C)c(OC)c1 |  | inactive: -3.95%
52 | CCN(CC)S(=O)(=O)c1cccc(NC(=O)C2SC(=Nc3ccc(C)cc3C)C(C(=O)NC(C)COC)=C2N)c1 (stereo not given) | inconclusive: 18.4 µM [inhibitor, single point] | 
53 | O=C(NCC1OCCc2ccccc21)c1ccc(NC(=O)c2cccc(Br)c2)cc1 (stereo not given) |  | inactive: -18%
54 | Cc1ccc(O)c(C(=O)c2cnn(C(=O)Cc3csc(C)n3)c2)c1 | active: 16.4 µM | 
55 | c1ccc2oc(C3=NNC(=NC4CC4)SC3)cc2c1 | inconclusive: 0.58 µM [activator, full curve] | 
56 | COc1cc2c3c(c1)c(C1=NC(=S)NC1=O)c(O)n3C(C)(C)C=C2C |  | inactive: -3.78%
57 | Cc1noc(NS(=O)(=O)c2ccc(NS(=O)(=O)c3ccc(Cl)cc3)cc2)c1C |  | inactive: 15.7%
58 | O=C(Nc1ccc(S(=O)(=O)NCc2cccnc2)cc1)c1ccccc1Cl |  | inactive: -14.2%
59 | COc1ccc(C(=O)NC(=S)NCCO)cc1Br |  | inactive: 21.2%
60 | COc1ccc2c(c1)CCc1c(C(=O)NC3CCCCC3)noc1-2 | inconclusive: 2.06 µM [activator, full curve] | 
61 | Cc1ccc(/C=N/Nc2cccc3cccnc23)c(O)c1 | inconclusive: 8.2 µM [activator, partial curve] | 
62 | O=C(Nc1ccn(Cc2ccccc2)n1)c1ccc2c(c1)OCO2 | inconclusive: 13 µM [activator, partial curve] | 
63 | NC(=O)c1c(NC(=O)c2ccc([N+](=O)[O-])o2)sc2c1CCCC2 |  | inactive: -6.93%
64 | O=C(CSc1nc(O)cc(=O)n1-c1ccccc1)Nc1nc2ccccc2s1 |  | inactive: 22.9%
65 | CN(C1=C(N2CCCCC2)C(=O)c2ccccc2C1=O)c1ccccc1 |  | inactive: -12.2%
66 | Cc1cccc(NC(=O)c2ccc3c(=O)n(CC4CCCO4)c(=S)[nH]c3c2)c1 (stereo not given) | active: 16.4 µM | 
67 | Cn1c(SCC(=O)c2ccc3c(c2)OCCO3)nnc1C1CC1 | inconclusive: 18.4 µM [activator, single point] | 
68 | CC1(C)NC(=O)N(CC(O)CN(c2ccccc2)S(=O)(=O)c2ccc([N+](=O)[O-])cc2)C1=O (stereo not given) |  | inactive: 0.838%
69 | Cn1cc(CNC(=O)c2ccc3nc(Cc4ccccc4F)oc3c2)cn1 | inconclusive: 10.3 µM [activator, partial curve] | 
70 | CC(C)N1C(=O)S/C(=C/c2ccc3c(c2)n(C)c(=O)n3C)C1=O | inconclusive: 9.2 µM [activator, partial curve] | 
71 | Nc1ccccc1Nc1cc(-c2ccccc2)nn1-c1ccccc1 | inconclusive: 16.4 µM [activator, single point] | 
72 | Cc1ccc2cc3cc(C(=O)NCCCN4CCCCCC4)oc3nc2c1 |  | inactive: -11.1%
73 | CC1CCN(C(=O)CNC(=O)Cc2ccccc2)CC1 | inconclusive: 16.4 µM [activator, single point] | 
74 | COC(=O)c1c(NC(=O)c2c(-c3ccccc3Cl)noc2C)sc2c1CCC2 | inconclusive: 18.4 µM [inhibitor, single point] | 
75 | Cn1c(=O)c2c(nc(OCCc3ccccc3)n2C)n(C)c1=O | inconclusive: 18.3 µM [inhibitor, single point] | 

Rewritten in CSV form: part of the list above
Row,SMILES,Potency,"activity change, negative = inhibition"
62,O=C(Nc1ccn(Cc2ccccc2)n1)c1ccc2c(c1)OCO2,"inconclusive: 13 µM [activator, partial curve]",
63,NC(=O)c1c(NC(=O)c2ccc([N+](=O)[O-])o2)sc2c1CCCC2,,inactive: -6.93%
64,O=C(CSc1nc(O)cc(=O)n1-c1ccccc1)Nc1nc2ccccc2s1,,inactive: 22.9%
